Measured values from US20080248458A1 (UNIVERSITY OF NORTH CAROLINA AT CHAPEL HILL, published 2008).
Results are given in words; binding and its absence hold for the method and conditions named. In cells and extracts the contact can be indirect. Some entries that bind do so weakly or less than the wild type. For some assays here: Sequences can lack the tags named with a protein.

Tests used:
GST-Bmi-1 (mouse) [1] = target: T1, GST-Bmi-1 (mouse) (UniProt P25916); test: GST pull-down with 35S-labelled in vitro translated proteins (FIG. 5A)
T1 sequence (looked up): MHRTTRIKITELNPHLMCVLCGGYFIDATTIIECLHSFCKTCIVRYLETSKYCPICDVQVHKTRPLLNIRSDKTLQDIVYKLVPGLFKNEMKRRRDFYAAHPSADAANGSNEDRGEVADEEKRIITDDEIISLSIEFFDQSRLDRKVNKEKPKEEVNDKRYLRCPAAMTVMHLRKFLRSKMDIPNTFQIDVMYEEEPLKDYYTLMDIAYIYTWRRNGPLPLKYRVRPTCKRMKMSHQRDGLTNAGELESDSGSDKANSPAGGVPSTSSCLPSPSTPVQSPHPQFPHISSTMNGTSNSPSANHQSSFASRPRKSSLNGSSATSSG

GST-Bmi-1 (mouse) [2] = target: T1, GST-Bmi-1 (mouse); test: GST pull-down: GST fusion on glutathione beads, 35S-labelled in vitro translated protein, fluorography (FIG. 5A)
GST-Pc3 (mouse) = target: T2, GST-Pc3 (mouse) (UniProt Q9QXV1); test: as above
T2 sequence (looked up): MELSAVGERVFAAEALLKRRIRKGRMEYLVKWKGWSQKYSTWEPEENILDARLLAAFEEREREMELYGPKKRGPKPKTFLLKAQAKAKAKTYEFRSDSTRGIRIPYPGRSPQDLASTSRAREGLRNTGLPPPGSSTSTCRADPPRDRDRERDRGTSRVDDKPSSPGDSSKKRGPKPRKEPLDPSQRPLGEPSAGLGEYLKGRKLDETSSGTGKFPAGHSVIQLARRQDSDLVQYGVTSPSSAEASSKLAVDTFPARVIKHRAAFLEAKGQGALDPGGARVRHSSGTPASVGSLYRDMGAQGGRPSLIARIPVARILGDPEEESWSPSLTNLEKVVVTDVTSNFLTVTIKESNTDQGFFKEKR

GST-Ph2 (mouse) = target: T3, GST-Ph2 (mouse) (UniProt Q9QWH1); test: as above
T3 sequence (looked up): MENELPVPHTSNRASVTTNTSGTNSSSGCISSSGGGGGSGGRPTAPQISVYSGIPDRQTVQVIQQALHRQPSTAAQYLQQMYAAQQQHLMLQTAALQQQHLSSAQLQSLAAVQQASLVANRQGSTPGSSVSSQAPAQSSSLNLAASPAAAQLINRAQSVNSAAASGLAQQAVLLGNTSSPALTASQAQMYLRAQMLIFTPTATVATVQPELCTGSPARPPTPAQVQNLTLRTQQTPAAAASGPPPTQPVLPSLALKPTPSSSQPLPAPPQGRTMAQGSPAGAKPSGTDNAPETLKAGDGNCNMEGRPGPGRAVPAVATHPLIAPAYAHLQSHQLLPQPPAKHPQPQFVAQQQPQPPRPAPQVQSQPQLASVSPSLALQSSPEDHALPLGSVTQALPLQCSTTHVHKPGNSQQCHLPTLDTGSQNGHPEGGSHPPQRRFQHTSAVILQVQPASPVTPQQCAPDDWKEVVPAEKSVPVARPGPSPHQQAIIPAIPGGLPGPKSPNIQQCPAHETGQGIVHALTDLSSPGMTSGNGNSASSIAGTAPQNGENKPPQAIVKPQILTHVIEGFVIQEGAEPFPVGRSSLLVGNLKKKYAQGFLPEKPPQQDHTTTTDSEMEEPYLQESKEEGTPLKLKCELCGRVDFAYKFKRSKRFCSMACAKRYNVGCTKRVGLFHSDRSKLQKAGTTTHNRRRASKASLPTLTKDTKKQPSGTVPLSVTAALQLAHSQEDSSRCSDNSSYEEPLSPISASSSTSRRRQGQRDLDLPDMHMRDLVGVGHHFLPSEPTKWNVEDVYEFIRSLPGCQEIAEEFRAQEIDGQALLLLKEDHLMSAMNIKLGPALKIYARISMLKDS

GST-Ring1A [3] = target: T4, GST-Ring1A (mouse, UniProt O35730 1-406); test: GST pull-down, summary scheme (FIG. 5B)
T4 construct: mature; Full-length cDNA cloned into pGEX-KG; also called GST fusion of Ring1A; not shown: glutathione S-transferase (GST) encoded by the pGEX-KG vector
T4 sequence (looked up): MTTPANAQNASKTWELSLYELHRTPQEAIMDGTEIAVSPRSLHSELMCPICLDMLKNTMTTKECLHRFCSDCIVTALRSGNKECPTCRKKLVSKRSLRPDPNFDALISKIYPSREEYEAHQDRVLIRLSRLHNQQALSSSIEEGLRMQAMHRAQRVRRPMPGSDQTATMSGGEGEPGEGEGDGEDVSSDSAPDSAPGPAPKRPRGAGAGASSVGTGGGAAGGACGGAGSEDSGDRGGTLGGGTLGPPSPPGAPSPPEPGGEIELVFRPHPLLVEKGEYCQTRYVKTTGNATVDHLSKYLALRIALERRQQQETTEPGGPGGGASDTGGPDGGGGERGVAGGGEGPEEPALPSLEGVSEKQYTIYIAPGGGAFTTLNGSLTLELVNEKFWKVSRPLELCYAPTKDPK

GST-Ring1B (mouse) [4] = target: GST-Ring1B (mouse) (UniProt Q9CQJ4); test: GST pull-down, summary scheme (FIG. 5B)
GST-Ring1A [5] = target: T4, GST-Ring1A; test: GST pull-down: GST fusion on glutathione beads, 35S-labelled in vitro translated protein, fluorography (FIG. 5A)
GST-Ring1B (mouse) [6] = target: GST-Ring1B (mouse) (UniProt Q9CQJ4); test: as above

Measured: binding

Ring1A (from UniProt O35730 1-406)
binds: GST-Bmi-1 (mouse) [1] | GST-Bmi-1 (mouse) [2] | GST-Pc3 (mouse) | GST-Ph2 (mouse)

B1: Ring1B (enzyme, mouse, UniProt Q9CQJ4 2-336, looked up)
chain: SQAVQTNGTQPLSKTWELSLYELQRTPQEAITDGLEIVVSPRSLHSELMCPICLDMLKNTMTTKECLHRFCADCIITALRSGNKECPTCRKKLVSKRSLRPDPNFDALISKIYPSRDEYEAHQERVLARINKHNNQQALSHSIEEGLKIQAMNRLQRGKKQQIENGSGAEDNGDSSHCSNASTHSNQEAGPSNKRTKTSDDSGLELDNNNAAVAIDPVMDGASEIELVFRPHPTLMEKDDSAQTRYIKTSGNATVDHLSKYLAVRLALEELRSKGESNQMNLDTASEKQYTIYIATASGQFTVLNGSFSLELVSEKYWKVNKPMELYYAPTKEHK
notes: mature; Untagged protein: 35S-labelled in vitro translation product (pCITE, full-length cDNA) in the GST pull-down; baculovirus-expressed in Sf9 cells in the co-purifications; also called Ring2; Ring2/Ring1B
binds: GST-Bmi-1 (mouse) [1] | GST-Bmi-1 (mouse) [2] | GST-Pc3 (mouse) | GST-Ph2 (mouse)

B2: Bmi-1 (other, mouse, UniProt P25916 1-324, looked up)
chain: MHRTTRIKITELNPHLMCVLCGGYFIDATTIIECLHSFCKTCIVRYLETSKYCPICDVQVHKTRPLLNIRSDKTLQDIVYKLVPGLFKNEMKRRRDFYAAHPSADAANGSNEDRGEVADEEKRIITDDEIISLSIEFFDQSRLDRKVNKEKPKEEVNDKRYLRCPAAMTVMHLRKFLRSKMDIPNTFQIDVMYEEEPLKDYYTLMDIAYIYTWRRNGPLPLKYRVRPTCKRMKMSHQRDGLTNAGELESDSGSDKANSPAGGVPSTSSCLPSPSTPVQSPHPQFPHISSTMNGTSNSPSANHQSSFASRPRKSSLNGSSATSSG
notes: mature; Untagged protein: 35S-labelled in vitro translation product in the GST pull-down; baculovirus-expressed in Sf9 cells in the two-component complex with FLAG-Ring1B
binds: GST-Ring1A [3] | GST-Ring1B (mouse) [4] | GST-Ring1A [5] | GST-Ring1B (mouse) [6] | GST-Pc3 (mouse) | GST-Ph2 (mouse)

B3: Pc3 (protein, mouse, UniProt Q9QXV1 1-362, looked up)
chain: MELSAVGERVFAAEALLKRRIRKGRMEYLVKWKGWSQKYSTWEPEENILDARLLAAFEEREREMELYGPKKRGPKPKTFLLKAQAKAKAKTYEFRSDSTRGIRIPYPGRSPQDLASTSRAREGLRNTGLPPPGSSTSTCRADPPRDRDRERDRGTSRVDDKPSSPGDSSKKRGPKPRKEPLDPSQRPLGEPSAGLGEYLKGRKLDETSSGTGKFPAGHSVIQLARRQDSDLVQYGVTSPSSAEASSKLAVDTFPARVIKHRAAFLEAKGQGALDPGGARVRHSSGTPASVGSLYRDMGAQGGRPSLIARIPVARILGDPEEESWSPSLTNLEKVVVTDVTSNFLTVTIKESNTDQGFFKEKR
binds: GST-Ring1A [5] | GST-Bmi-1 (mouse) [2] | GST-Ring1B (mouse) [6]

B4: Ph2 (protein, mouse, UniProt Q9QWH1 1-850, looked up)
chain: MENELPVPHTSNRASVTTNTSGTNSSSGCISSSGGGGGSGGRPTAPQISVYSGIPDRQTVQVIQQALHRQPSTAAQYLQQMYAAQQQHLMLQTAALQQQHLSSAQLQSLAAVQQASLVANRQGSTPGSSVSSQAPAQSSSLNLAASPAAAQLINRAQSVNSAAASGLAQQAVLLGNTSSPALTASQAQMYLRAQMLIFTPTATVATVQPELCTGSPARPPTPAQVQNLTLRTQQTPAAAASGPPPTQPVLPSLALKPTPSSSQPLPAPPQGRTMAQGSPAGAKPSGTDNAPETLKAGDGNCNMEGRPGPGRAVPAVATHPLIAPAYAHLQSHQLLPQPPAKHPQPQFVAQQQPQPPRPAPQVQSQPQLASVSPSLALQSSPEDHALPLGSVTQALPLQCSTTHVHKPGNSQQCHLPTLDTGSQNGHPEGGSHPPQRRFQHTSAVILQVQPASPVTPQQCAPDDWKEVVPAEKSVPVARPGPSPHQQAIIPAIPGGLPGPKSPNIQQCPAHETGQGIVHALTDLSSPGMTSGNGNSASSIAGTAPQNGENKPPQAIVKPQILTHVIEGFVIQEGAEPFPVGRSSLLVGNLKKKYAQGFLPEKPPQQDHTTTTDSEMEEPYLQESKEEGTPLKLKCELCGRVDFAYKFKRSKRFCSMACAKRYNVGCTKRVGLFHSDRSKLQKAGTTTHNRRRASKASLPTLTKDTKKQPSGTVPLSVTAALQLAHSQEDSSRCSDNSSYEEPLSPISASSSTSRRRQGQRDLDLPDMHMRDLVGVGHHFLPSEPTKWNVEDVYEFIRSLPGCQEIAEEFRAQEIDGQALLLLKEDHLMSAMNIKLGPALKIYARISMLKDS
binds: GST-Ring1A [5] | GST-Bmi-1 (mouse) [2] | GST-Ring1B (mouse) [6]
